{"source": "paper PMC11464496", "target": "T1, Flag-tagged ULK1 (human) (UniProt O75385)", "T1 sequence": "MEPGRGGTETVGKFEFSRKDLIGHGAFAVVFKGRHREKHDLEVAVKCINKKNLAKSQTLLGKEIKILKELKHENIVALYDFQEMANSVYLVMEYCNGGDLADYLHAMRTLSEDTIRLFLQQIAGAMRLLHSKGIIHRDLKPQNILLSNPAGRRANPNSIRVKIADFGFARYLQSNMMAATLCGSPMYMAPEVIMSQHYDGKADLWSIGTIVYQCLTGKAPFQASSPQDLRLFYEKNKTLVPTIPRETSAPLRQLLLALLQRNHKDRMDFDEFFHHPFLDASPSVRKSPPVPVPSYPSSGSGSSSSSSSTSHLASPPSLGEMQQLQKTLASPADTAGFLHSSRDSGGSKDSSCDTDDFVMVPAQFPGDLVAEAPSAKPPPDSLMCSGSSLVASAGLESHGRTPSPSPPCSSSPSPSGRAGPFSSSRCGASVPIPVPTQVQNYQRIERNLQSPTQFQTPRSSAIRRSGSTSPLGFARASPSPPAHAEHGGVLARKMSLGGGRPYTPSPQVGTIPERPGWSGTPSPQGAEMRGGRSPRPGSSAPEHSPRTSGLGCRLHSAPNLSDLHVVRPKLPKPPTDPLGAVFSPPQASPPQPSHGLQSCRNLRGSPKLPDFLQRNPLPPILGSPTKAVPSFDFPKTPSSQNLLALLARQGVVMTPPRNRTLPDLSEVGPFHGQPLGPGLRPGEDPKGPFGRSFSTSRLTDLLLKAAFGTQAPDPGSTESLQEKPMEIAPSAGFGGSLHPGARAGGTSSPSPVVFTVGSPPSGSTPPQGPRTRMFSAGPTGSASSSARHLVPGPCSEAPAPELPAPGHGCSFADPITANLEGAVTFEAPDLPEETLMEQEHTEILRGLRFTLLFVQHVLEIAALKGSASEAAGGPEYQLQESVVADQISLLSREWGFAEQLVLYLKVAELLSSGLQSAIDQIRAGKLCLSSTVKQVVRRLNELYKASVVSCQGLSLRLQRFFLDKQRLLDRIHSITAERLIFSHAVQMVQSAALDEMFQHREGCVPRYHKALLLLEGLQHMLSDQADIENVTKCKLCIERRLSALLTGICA", "experiment": "co-IP; HEK293T cells co-transfected with Flag- and Myc-tagged plasmids; lysis in IP buffer (50 mM Tris-HCl, 150 mM NaCl, 1.0% NP-40); agarose-conjugated anti-Flag antibody overnight at 4 °C; immunoblot", "note": "These are yes or no findings as the source states them, for the method shown. In cells and extracts the contact can be indirect. Some binding calls cover weakened binding; strength is not graded here. Tags and fused reporters may be left off the sequences shown.", "data": [{"binder": "Myc-tagged FBXO16 (protein, UniProt Q8IX29 1-292) MMAFAPPKNTDGPKMQTKMSTWTPLNHQLLNDRVFEERRALLGKWFDKWTDSQRRRILTGLLERCSLSQQKFCCRKLQEKIPAEALDFTTKLPRVLSLYIFSFLDPRSLCRCAQVCWHWKNLAELDQLWMLKCLRFNWYINFSPTPFEQGIWKKHYIQMVKELHITKPKTPPKDGFVIADVQLVTSNSPEEKQSPLSAFRSSSSLRKKNNSGEKALPPWRSSDKHPTDIIRFNYLDNRDPMETVQQGRRKRNQMTPDFSRQSHDKKNKLQDRTRLRKAQSMMSRRNPFPLCP", "values": [{"measurement": "binding", "result": "binds"}]}]}
